Data as given in patent publication US20250051788A1.

Molecular target: Multidrug resistance protein (AT1G67700) (Arabidopsis thaliana)
Test: anti-FLAG IP-MS of FLAG-BD plants

B1: FLAG-BD (FLAG-tagged minimal Arabidopsis BRN1 protein that contains only the first two RRM domains) (protein)
chain: MDYKDDDDKGIHGVPAAAEAKEENREKNEEEESVKLFVGQIPKHMSESQLLTLFQEFAVVDEVNIIKDKITRASRGCCFLLCPSREEADKLVNACHNKKTLPGANSLLQVKYADGELERLEHKLFVGMLPKNVSEAEVQSLFSKYGTIKDLQILRGAQQTSKGCAFLKYETKEQAVSAMESINGKHKMEGSTVPLVVKWADTERERHTRRLQKAQ
Question: Which binding does the source give for B1 here?
Answer: binds

These are yes or no findings as the source states them, for the method shown. Binding can be weak; no strength is given. Where a sequence is shown, tags or fusion partners need not be part of it.
